The values that follow come from article PMC7862700.

What all share (assay): DAPPL (digital affinity profiling via proximity ligation, sequencing)
Holding throughout (conditions): 10 mM Tris-HCl pH 7.5, 50 mM NaCl, 1 mM DTT, 4% glycerol, room temperature, 30 min; GST-TFs on glutathione beads, 16-mer random dsDNA library, 0.1% …; high values mean tight binding; double strand, one strand shown; scale: fold enrichment (6-mer frequency, TF over GST control)

Experiment [1] has as its target T1, ELK1 (UniProt P19419).
T1 sequence: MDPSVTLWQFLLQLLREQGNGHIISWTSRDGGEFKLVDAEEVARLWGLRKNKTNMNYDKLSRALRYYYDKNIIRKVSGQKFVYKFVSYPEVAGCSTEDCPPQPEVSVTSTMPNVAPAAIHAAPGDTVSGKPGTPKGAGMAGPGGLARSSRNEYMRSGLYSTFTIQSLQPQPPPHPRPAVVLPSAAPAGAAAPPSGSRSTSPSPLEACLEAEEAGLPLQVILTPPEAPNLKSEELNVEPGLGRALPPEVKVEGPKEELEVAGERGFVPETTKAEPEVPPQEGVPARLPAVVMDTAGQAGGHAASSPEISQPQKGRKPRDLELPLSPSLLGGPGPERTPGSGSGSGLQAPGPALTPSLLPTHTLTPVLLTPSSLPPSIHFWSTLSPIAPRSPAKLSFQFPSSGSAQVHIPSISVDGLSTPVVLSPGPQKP

In experiment [2] the target is T2, ELK3 (UniProt P41970).
T2 sequence: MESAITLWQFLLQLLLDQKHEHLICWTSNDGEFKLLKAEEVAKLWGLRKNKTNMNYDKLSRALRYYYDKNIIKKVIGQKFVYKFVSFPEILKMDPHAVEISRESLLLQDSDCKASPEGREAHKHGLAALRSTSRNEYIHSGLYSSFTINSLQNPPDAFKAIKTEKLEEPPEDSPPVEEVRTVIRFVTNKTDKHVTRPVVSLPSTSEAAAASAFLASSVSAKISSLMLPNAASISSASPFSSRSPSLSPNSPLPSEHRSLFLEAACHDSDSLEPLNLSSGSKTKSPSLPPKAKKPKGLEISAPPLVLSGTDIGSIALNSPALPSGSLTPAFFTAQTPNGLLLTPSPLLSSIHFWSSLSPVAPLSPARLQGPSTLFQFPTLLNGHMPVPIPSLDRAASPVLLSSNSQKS

The target of experiment [3] is T3, SPIC (UniProt Q8N5J4).
T3 sequence: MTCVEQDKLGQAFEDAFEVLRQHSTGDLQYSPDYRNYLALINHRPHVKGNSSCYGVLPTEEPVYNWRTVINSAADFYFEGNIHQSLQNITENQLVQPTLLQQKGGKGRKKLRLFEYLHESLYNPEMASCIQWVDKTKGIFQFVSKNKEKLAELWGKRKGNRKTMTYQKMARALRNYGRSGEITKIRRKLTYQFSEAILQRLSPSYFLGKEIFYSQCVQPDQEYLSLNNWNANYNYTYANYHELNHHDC

Experiment [4] deals with T4, ETS2 (UniProt P15036).
T4 sequence: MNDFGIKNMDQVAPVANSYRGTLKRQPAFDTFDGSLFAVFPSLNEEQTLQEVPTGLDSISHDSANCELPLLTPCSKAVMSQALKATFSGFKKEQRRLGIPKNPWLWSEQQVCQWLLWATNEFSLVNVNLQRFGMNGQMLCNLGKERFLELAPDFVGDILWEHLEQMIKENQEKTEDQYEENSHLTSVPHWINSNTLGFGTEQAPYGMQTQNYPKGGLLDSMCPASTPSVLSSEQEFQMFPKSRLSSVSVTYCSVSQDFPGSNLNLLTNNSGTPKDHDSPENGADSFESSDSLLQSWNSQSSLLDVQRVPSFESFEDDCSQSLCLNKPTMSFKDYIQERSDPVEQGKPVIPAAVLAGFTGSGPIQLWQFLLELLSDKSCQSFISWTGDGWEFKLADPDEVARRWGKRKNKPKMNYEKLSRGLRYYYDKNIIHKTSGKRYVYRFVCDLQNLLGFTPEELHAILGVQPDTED

The target in experiment [5] is T5, ETV3 (UniProt P41162-2).
T5 sequence: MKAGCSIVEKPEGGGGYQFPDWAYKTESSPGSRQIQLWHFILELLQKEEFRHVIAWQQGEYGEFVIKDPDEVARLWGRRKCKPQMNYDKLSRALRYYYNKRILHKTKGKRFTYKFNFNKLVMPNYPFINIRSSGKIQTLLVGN

This is a selection; strong and weak results do not stand in their true shares. At the low end of the ranking, values are background and their order means little.

On to GTCACC, for which the binding signal was determined as 0.963 in experiment [1]; 0.91 in experiment [2]; 0.914 in experiment [3]; 0.902 in experiment [4]; 0.877 in experiment [5].
For GGCATA the same measures were 0.988, 0.847, 0.867, 0.95 and 0.933.
The corresponding values for AATCGT are 0.817, 0.778, 0.876, 0.896 and 0.919.
With AGTGTA, the binding signal came to 0.909 in experiment [1]; 0.943 in experiment [2]; 1.19 in experiment [3]; 0.949 in experiment [4]; 0.977 in experiment [5].
Take AGGATT: the binding signal in experiment [1] was 0.869; in experiment [2] it was 0.97; in experiment [3], 0.782; in experiment [4] it was 0.944; in experiment [5] it was 0.891.
As for TGTGAT, the binding signal in experiment [1] came out at 0.974; in experiment [2] it was 0.982; in experiment [3], 0.973; in experiment [4] it was 1.09; in experiment [5] it was 0.956.
For AAGGTC the same measures were 0.922, 0.932, 0.898, 0.915 and 0.938.
In the case of TGGTGA, the binding signal in experiment [1] worked out at 1.04; in experiment [2], 0.953; in experiment [3], 1.02; in experiment [4], 0.933; in experiment [5], 0.96.
As for GCCAGA, the binding signal in experiment [1] was determined as 0.634; in experiment [2], 0.727; in experiment [3], 0.582; in experiment [4], 0.625; in experiment [5], 0.651.
For the sequence AGGTTC, the binding signal in experiment [1] stood at 0.851; in experiment [2] it was 0.875; in experiment [3], 0.822; in experiment [4], 0.835; in experiment [5] it was 0.865.
On to TGTTGG, for which the binding signal in experiment [1] came out at 0.93; in experiment [2], 0.891; in experiment [3] it was 0.862; in experiment [4] it was 0.842; in experiment [5], 0.932.
As to AGAACC, the binding signal in experiment [1] was determined as 0.946; in experiment [2], 0.889; in experiment [3] it was 1.03; in experiment [4], 0.903; in experiment [5] it was 0.872.
As for GGATAA, the binding signal in experiment [1] stood at 0.835; in experiment [2] it was 0.814; in experiment [3], 0.74; in experiment [4] it was 0.835; in experiment [5], 0.828.
As for CGAGTA, the binding signal in experiment [1] came to 0.847; in experiment [2], 0.858; in experiment [3], 0.877; in experiment [4] it was 0.803; in experiment [5], 0.817.
Take TAGGCC: the binding signal was determined as 0.911 in experiment [1]; 0.959 in experiment [2]; 0.988 in experiment [3]; 0.92 in experiment [4]; 0.89 in experiment [5].
As for CGCGCA, the binding signal in experiment [1] came out at 0.944; in experiment [2], 1.01; in experiment [3], 1.01; in experiment [4] it was 0.953; in experiment [5] it was 0.929.
Consider CGTCGA, for which the binding signal came to 0.922 in experiment [1]; 0.955 in experiment [2]; 0.799 in experiment [3]; 0.96 in experiment [4]; 0.82 in experiment [5].
Turning to CGAAGT, the binding signal in experiment [1] turned out to be 0.947; in experiment [2] it was 0.775; in experiment [3], 0.937; in experiment [4] it was 0.901; in experiment [5], 0.823.
Take ACCTAG: the binding signal was 0.959 in experiment [1]; 0.998 in experiment [2]; 1.01 in experiment [3]; 1.06 in experiment [4]; 0.922 in experiment [5].
On to CAGAAG, for which the binding signal worked out at 0.68 in experiment [1]; 0.783 in experiment [2]; 0.719 in experiment [3]; 0.799 in experiment [4]; 0.79 in experiment [5].
Regarding GACTTG, the binding signal in experiment [1] is 0.856; in experiment [2] it was 0.716; in experiment [3] it was 0.675; in experiment [4] it was 0.8; in experiment [5], 0.927.
For AGCGAA the same measures were 0.898, 0.871, 0.859, 0.93 and 0.986.
For the sequence GAAGGT, the binding signal in experiment [1] came out at 0.832; in experiment [2], 0.796; in experiment [3], 0.722; in experiment [4], 0.863; in experiment [5] it was 0.868.
CCAGAT: the binding signal in experiment [1] is 0.806; in experiment [2], 0.941; in experiment [3] it was 0.838; in experiment [4], 0.907; in experiment [5], 0.871.
For ATAGTG the same measures were 0.935, 0.827, 0.894, 0.905 and 0.905.
The corresponding values for GACCGA are 0.817, 0.826, 0.881, 0.839 and 0.795.
GTGTAA: the binding signal in experiment [1] amounted to 0.845; in experiment [2], 0.944; in experiment [3] it was 0.863; in experiment [4], 0.969; in experiment [5] it was 0.901.
In the case of CTAGTG, the binding signal came to 0.865 in experiment [1]; 0.891 in experiment [2]; 0.8 in experiment [3]; 0.846 in experiment [4]; 0.796 in experiment [5].
